Measurements: patent publication US7378403B2, “Akt inhibitors, pharmaceutical compositions, and uses thereof” (The United States of America as represented by the …, priority 2002, dated 2008)
Some results were stated once for a whole list of compounds, not compound by compound. For at least one compound, name, drawing or mass did not settle the structure. Some ranges recur; such a range may be that of the whole group of compounds.

Experiments:
Assay type in all cases: cell-based
[1] = tested on: Akt; assay: Akt kinase activity (FIG. 1E)
[2] = tested on: 4EBP-1; assay: Immunoblotting with phospho-specific antibodies: 4EBP-1 phosphorylation; details: for phosphorylation of 4-EBP-1: H1703 cells, FIG. 3C; for phosphorylation of 4EBP-1: MB468 cells, FIG. 3D
Method: The SH compounds were tested against Akt and other kinases that are either upstream of Akt (PDK-1), downstream of Akt (c-Raf, 4EBP-1, p70S6K, FKHR, GSK-3, and/or AFX), or downstream of Ras (ERK, p38). Immunoblotting was carried out with phospho-specific antibodies to assess activation state of the kinases, and with native antibodies to assess changes in protein levels. Similar results were obtained with the H1703 (FIG. 3A) or H157 cells (FIG. 3B). […] Upstream of Akt, phosphorylation of PDK-1 was not affected by any SH compound. Of the downstream substrates, c-Raf phosphorylation and 4EBP-1 phosphorylation were decreased most. Decreased c-Raf phosphorylation correlated with increased ERK and p38 phosphorylation, which is consistent with the inhibitory effect of S259 phosphorylation by Akt on c-Raf activity.

[3] = tested on: c-Raf; assay: Immunoblotting with phospho-specific antibodies: c-Raf phosphorylation
[4] = tested on: Akt; assay: Immunoblotting with antibodies against Akt phosphorylated at S473 and native Akt after administration of compounds to cancer cell lines; details: for IC50: FIG. 2A/2B, read-out: IC50, inhibition of S473 phosphorylation (densitometry of immunoblots); for dependence of inhibition of Akt phosphorylation on PTEN: H1703 (wild type PTEN) versus H157 (mutant PTEN); for phosphorylation of Akt: H1703 cells, FIG. 3C; for Akt phosphorylation: MB468 cells, FIG. 3D
Method: The SH compounds were tested against Akt and other kinases that are either upstream of Akt (PDK-1), downstream of Akt (c-Raf, 4EBP-1, p70S6K, FKHR, GSK-3, and/or AFX), or downstream of Ras (ERK, p38). Immunoblotting was carried out with phospho-specific antibodies to assess activation state of the kinases, and with native antibodies to assess changes in protein levels.

[5] = molecular target: T1, PDK-1 (Homo sapiens, UniProt O15530); assay: Immunoblotting with phospho-specific antibodies: PDK-1 phosphorylation
T1 construct: endogenous in cells; host or cells: H1703, H157, MB468
T1 sequence (O15530 1-556): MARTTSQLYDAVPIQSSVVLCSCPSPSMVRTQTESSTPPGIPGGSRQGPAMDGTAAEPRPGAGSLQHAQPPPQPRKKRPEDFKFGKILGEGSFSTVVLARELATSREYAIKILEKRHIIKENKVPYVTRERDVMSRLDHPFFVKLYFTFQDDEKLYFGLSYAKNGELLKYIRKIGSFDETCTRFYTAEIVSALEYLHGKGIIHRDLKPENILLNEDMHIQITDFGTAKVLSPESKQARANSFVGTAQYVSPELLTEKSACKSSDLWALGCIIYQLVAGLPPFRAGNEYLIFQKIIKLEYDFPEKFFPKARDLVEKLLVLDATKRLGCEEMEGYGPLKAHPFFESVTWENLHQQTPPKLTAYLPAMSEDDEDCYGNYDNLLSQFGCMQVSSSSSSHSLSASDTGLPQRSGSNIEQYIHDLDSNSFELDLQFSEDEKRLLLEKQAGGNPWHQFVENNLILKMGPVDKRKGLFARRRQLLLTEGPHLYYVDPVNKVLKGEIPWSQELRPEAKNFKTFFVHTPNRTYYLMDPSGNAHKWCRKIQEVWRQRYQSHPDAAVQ

[6] = tested on: H1703, H157, and H1155 cells; assay: Apoptosis in cell lines with high levels of Akt activity; details: FIG. 4
Method: Cell lines containing high or low endogenous levels of Akt activity were treated with SH compounds and the cell apoptosis was measured.

[7] = summary, cell line not specified

| Compound | Akt kinase activity [1] | phosphorylation of 4-EBP-1 [2] | phosphorylation of 4EBP-1 [2] | phosphorylation of c-Raf ([3]; H1703 cells, FIG. 3C) | phosphorylation of c-Raf [3, 7] | IC50 [4] [µM] | dependence of inhibition of Akt phosphorylation on PTEN [4] | phosphorylation of Akt [4] | Akt phosphorylation [4] | PDK-1 phosphorylation ([5]; H1703 cells, FIG. 3C) | PDK-1 phosphorylation ([5]; MB468 cells, FIG. 3D) | increase of apoptosis [6] |
| --- | --- | --- | --- | --- | --- | --- | --- | --- | --- | --- | --- | --- |
| CCCCCCCCCCCCCCCCCCOCC(COP(=O)(O)OC1C(OCC2CCCCC2)CC(O)C(O)C1O)OC (centres unmarked) [SH24] | inhibit | decreased | not affected | decreased | attenuated | 2 to 4 | not dependent on PTEN | decreased | decreased | unaffected | without decreasing |  |
| CCCCCCCCCCCCCCCCCCOC[C@H](COP(=O)(O)O[C@@H]1CC[C@@H](O)[C@H](O)[C@H]1O)OC [SH6] | inhibit |  |  |  |  | 2 to 4 | not dependent on PTEN |  |  |  |  | 10-20 fold |
| CCCCCCCCCCCCCCCCCCOC[C@H](COP(=O)(O)O[C@H]1[C@H](O)[C@@H](O)[C@H](O)C[C@H]1OC)OC [SH5] | inhibit |  |  |  |  | 2 to 4 | not dependent on PTEN |  |  |  |  | 10-20 fold |
| CCCCCCCCCCCCCCCCCCOCC(COP(=O)(O)OC1C(O)CCC(O)C1O)OC (centres unmarked) [SH25] | inhibit | decreased | not affected | decreased | attenuated | 2 to 4 | not dependent on PTEN | decreased | decreased | unaffected | without decreasing |  |
| CCCCCCCCCCCCCCCCCCOCC(COP(=O)(O)OC1C(OCC(C)C)CC(O)C(O)C1O)OC (centres unmarked) [SH23] | inhibit | decreased | not affected | decreased | attenuated | 2 to 4 | not dependent on PTEN | decreased | decreased | unaffected | without decreasing |  |
